Values quoted from earlier work in patent publication US8753681B2, “Pharmaceutical composition comprising at least one active agent and a binder, which swells in an acidic media” (LEK Pharmaceuticals D.D., priority 2007, dated 2014).

Conditions: after oral application

SMILES: CC(C)c1c(C(=O)Nc2ccccc2)c(-c2ccccc2)c(-c2ccc(F)cc2)n1CC[C@@H](O)C[C@@H](O)CC(=O)O [Atorvastatin]
- time to reach maximum plasma concentration: less than 2 hours
